These results are taken from PMC6615629, “Hsp70-nucleotide exchange factor (NEF) Fes1 has non-NEF roles in degradation of gluconeogenic enzymes and cell wall integrity” (PLoS Genetics, 2019).

The experiment concerns the target GST-Fes1ΔRD (yeast (S. cerevisiae)). Briefly: pull-down; GST-Fes1 (wild type or mutant, or GST alone) pulled down on glutathione resin; reactions with two or all three proteins; 6 μg each of His6-Fbp1 (1.6 μM), Hsp70 (0.9 μM) and GST-Fes1 (1.09 μM), with or without ATP, ADP or AMP (2.5 mM); 50 mM Tris-HCl pH 7.5, 150 mM NaCl, 2% glycerol, 5 mM MgCl2; 30 min at 4°C; stained SDS-PAGE gels; both purified.

No constants are given. Whether binding was seen depends on the method and setting. A result given as binding can be weak or reduced; the word gives no strength. Where a sequence is shown, tags or fusion partners need not be part of it.

B1: His6-Fbp1 (enzyme, yeast (S. cerevisiae), UniProt P09201 1-348, looked up)
chain: MPTLVNGPRRDSTEGFDTDIITLPRFIIEHQKQFKNATGDFTLVLNALQFAFKFVSHTIRRAELVNLVGLAGASNFTGDQQKKLDVLGDEIFINAMRASGIIKVLVSEEQEDLIVFPTNTGSYAVCCDPIDGSSNLDAGVSVGTIASIFRLLPDSSGTINDVLRCGKEMVAACYAMYGSSTHLVLTLGDGVDGFTLDTNLGEFILTHPNLRIPPQKAIYSINEGNTLYWNETIRTFIEKVKQPQADNNNKPFSARYVGSMVADVHRTFLYGGLFAYPCDKKSPNGKLRLLYEAFPMAFLMEQAGGKAVNDRGERILDLVPSHIHDKSSIWLGSSGEIDKFLDHIGKSQ
notes: Fbp1, yeast gluconeogenic enzyme; the initiator methionine is present in the purified protein and is counted as residue 1; also called wild type His6-Fbp1; not shown: His6, N-terminal, kept
As to B1, the binding entry was “binds”.
